These are yes or no findings as the source states them, for the method shown. Some results given as binding are weak or reduced against the parent protein; the word gives no strength.
Tests used:
[1] = target: BRCA1 (breast cancer susceptibility protein 1) fragment housing amino acids 219-504 (UniProt P38398); assay: NMR titration; 1H-15N signal amplitudes, chemical shift perturbations, 15N T2 and heteronuclear NOE of MAX with BRCA1 219-504; 35°C, pH 5.5, high organic salt concentrations; the disordered MAX monomer dominates; both purified
[2] = target: BRCA1 (breast cancer susceptibility protein 1) fragment housing amino acids 219-504 (UniProt P38398); assay: condition: only MAX as the MAX:MAX homodimer (before the temperature was raised to 35°C); NMR titration; 1H-15N spectra of the MAX:MAX homodimer exposed to BRCA1 219-504, before the temperature was raised to 35°C; pH 5.5, high organic salt concentrations; temperature not given; both purified
[3] = target: BRCA1 (breast cancer susceptibility protein 1) fragment housing amino acids 219-504 (UniProt P38398); assay: SAXS; pair distance distribution functions of BRCA1 219-504 in the absence and presence of MAX; both purified

Amino acid sequences for entries named in this document (tags omitted). Residues count along the entry.
UniProt P38398, residues 219-504: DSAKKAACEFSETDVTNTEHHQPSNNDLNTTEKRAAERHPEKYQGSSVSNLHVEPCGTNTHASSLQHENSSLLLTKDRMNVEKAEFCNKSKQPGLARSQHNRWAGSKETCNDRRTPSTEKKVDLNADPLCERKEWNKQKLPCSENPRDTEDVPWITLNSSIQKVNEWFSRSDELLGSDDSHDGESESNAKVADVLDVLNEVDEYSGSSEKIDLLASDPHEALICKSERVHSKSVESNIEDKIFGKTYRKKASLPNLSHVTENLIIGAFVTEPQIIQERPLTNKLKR
UniProt P61244: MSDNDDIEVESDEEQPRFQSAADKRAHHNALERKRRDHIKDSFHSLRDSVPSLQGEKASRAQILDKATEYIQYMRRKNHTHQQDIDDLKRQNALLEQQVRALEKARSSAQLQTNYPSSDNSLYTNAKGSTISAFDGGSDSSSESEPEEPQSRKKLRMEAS

binding [2]: no binding
binding [3]: binds
Substance: MAX (MYC-associated factor X) (from UniProt P61244 1-160)
binding [1]: binds

Reference: paper PMC10731500
